# In patent US6387926B1, “Inhibitors of farnesyl protein transferase” (Bristol-Myers Squibb Company, priority 1997, dated 2002):
# Counter-ions that a name gives are not always drawn. Some results were stated once for a whole list of compounds, not compound by compound.
# Target: farnesyl transferase (Homo sapiens, UniProt P49354+P49356)
# Test: Farnesyl transferase assays (as described in V. Manne et al., Drug Development Research, 34, 121-137, 1995)
# Format: biochemical
# Settings: limits printed with their own units: 1 nM and 100 uM
row,SMILES,"inhibited farnesyl transferase, IC 50 values"
1,"O=S(=O)(NC1Cc2cc(Br)ccc2N(Cc2cnc[nH]2)C1)c1cccc2ccccc12 (stereo not shown) [Example 1, N-[6-Bromo-1,2,3,4-tetrahydro-1-(1H-imidazol-4-ylmethyl)-3-quinolinyl]-1-naphthalenesulfonamide, dihydrochloride]",0.001 µM and 100 µM
2,"O=C(NC1Cc2cc(Br)ccc2N(Cc2cnc[nH]2)C1)c1cccc2ccccc12 (stereo not shown) [Example 2, N-[6-Bromo-1,2,3,4-tetrahydro-1-(1H-imidazol-4-ylmethyl)-3-quinolinyl]-1-naphthalenecarboxamide, dihydrochloride]",0.001 µM and 100 µM
3,"CS(=O)(=O)N(Cc1ccccc1)C1Cc2cc(Br)ccc2N(Cc2cnc[nH]2)C1 (stereo not shown) [Example 3, N-[6-Bromo-1,2,3,4-tetrahydro-1-(1H-imidazol-4-ylmethyl)-3-quinolinyl]-N-(phenylmethyl)methanesulfonamide, dihydrochloride]",0.001 µM and 100 µM
4,"O=S(=O)(NC1Cc2cc(Br)ccc2N(Cc2cnc[nH]2)C1)c1ccccc1 (stereo not shown) [Example 4, N-[6-Bromo-1,2,3,4-tetrahydro-1-(1H-imidazol-4-ylmethyl)-3-quinolinyl]benzenesulfonamide, dihydrochloride]",0.001 µM and 100 µM
5,"CC(=O)N(Cc1ccccc1)C1Cc2cc(Br)ccc2N(Cc2cnc[nH]2)C1 (stereo not shown) [Example 5, N-[6-Bromo-1,2,3,4-tetrahydro-1-(1H-imidazol-4-ylmethyl)-3-quinolinyl]-N-(phenylmethyl)acetamide, dihydrochloride]",0.001 µM and 100 µM
6,"COc1ccc(CN(C2Cc3cc(Br)ccc3N(Cc3cnc[nH]3)C2)S(C)(=O)=O)cc1 (stereo not shown) [Example 6, N-[6-Bromo-1,2,3,4-tetrahydro-1-(1H-imidazol-4-ylmethyl)-3-quinolinyl]-N-(4-methoxyphenyl)methyl]methanesulfonamide, dihydrochloride]",0.001 µM and 100 µM
7,"Cc1ccc(CN(C2Cc3cc(Br)ccc3N(Cc3c[nH]cn3)C2)S(C)(=O)=O)cc1 (stereo not shown) [Example 7, N-[6-Bromo-1,2,3,4-tetrahydro-1-(1H-imidazol-4-ylmethyl)-3-quinolinyl]-N-[(4-methylphenyl)methyl]methanesulfonamide monohydrochloride]",0.001 µM and 100 µM
8,"Cc1cccc(CN(C2Cc3cc(C#N)ccc3N(Cc3c[nH]cn3)C2)S(=O)(=O)c2ccccc2)c1 (stereo not shown) [Example 8, N-[6-Cyano-1,2,3,4-tetrahydro-1-(1H-imidazol-4-ylmethyl)-3-quinolinyl]-N-[(3-methylphenyl)methyl]benzenesulfonamide monohydrochloride]",0.001 µM and 100 µM
9,"Cc1ccccc1CN(C1Cc2cc(C#N)ccc2N(Cc2c[nH]cn2)C1)S(=O)(=O)c1ccccc1 (stereo not shown) [Example 9, N-[6-Cyano-1,2,3,4-tetrahydro-1-(1H-imidazol-4-ylmethyl)-3-quinolinyl]-N-[(2-methylphenyl)methyl]benzenesulfonamide monohydrochloride]",0.001 µM and 100 µM
10,"N#Cc1ccc2c(c1)CC(N(CCc1ccccc1)S(=O)(=O)c1ccccc1)CN2Cc1c[nH]cn1 (stereo not shown) [Example 10, N-[6-Cyano-1,2,3,4-tetrahydro-1-(1H-imidazol-4-ylmethyl)-3-quinolinyl]-N-(phenylethyl)benzenesulfonamide monohydrochloride]",0.001 µM and 100 µM
11,"COc1ccc2c(c1)CN(S(=O)(=O)c1cccc3ccccc13)CCC2NCc1cnc[nH]1 (stereo not shown) [Example 11, 2,3,4,5-Tetrahydro-5-[(1H-imidazol-4-ylmethyl)amino]-2-(1-naphthylsulfonyl)-8-methoxy-1H-2-benzazepine, dihydrochloride]",0.001 µM and 100 µM
12,"O=S(=O)(c1cccc2ccccc12)N1CCC(NCc2cnc[nH]2)c2ccc(-c3ccccc3)cc2C1 (stereo not shown) [Example 12, 2,3,4,5-Tetrahydro-5-[(1H-imidazol-4-ylmethyl)amino]-2-(1-naphthylsulfonyl)-8-phenyl-1H-2-benzazepine, dihydrochloride]",0.001 µM and 100 µM
13,"O=S(=O)(c1cccc2ccccc12)N1CCC(NCc2ncc[nH]2)c2ccc(-c3ccccc3)cc2C1 (stereo not shown) [Example 13, 2,3,4,5-Tetrahydro-5-[(1H-imidazol-2-ylmethyl)amino]-2-(1-naphthylsulfonyl)-8-phenyl-1H-2-benzazepine, dihydrochloride]",0.001 µM and 100 µM
